Test results from patent US9988428B2 (GRIFFON PHARMACEUTICALS INC., priority 2016, dated 2018).

Test: general procedure: Fmoc solid-phase peptide synthesis; Benzhydrylamine (BHA) resin (Bachem AG), loading 0.75 mmol/g, with 6-aminohexanoic acid and Rink linker; HCTU or COMU, DIEA
Conditions: conjugation step, analytical HPLC

Final HPLC purity, >95%:
YaDAIFTAC(Peg-2K)YROVLAQLSAROALC(Peg-2K)DILSRN-NH2, YaDAIFTAC(Peg-2K)YROVLAQLSAROALQDILC(Peg-2K)RN-NH2, YaDAIFTAC(Peg-2K)YROVLAQLSAROALQDILS-(Har)-NH2, YaDAIFTAC(Peg-2K)YROVLAQLSAROALQDILSKN-NH2, YaDAIFTAC(Peg-2K)YROVLAQLSAROALQDILSRNC(Peg-2K)-NH2, YaDAIFTAC(Peg-2K)YROVLAQLSAROC(Peg-2K)LQDILSRN-NH2, YaDAIFTAC(Peg-5K)YROVLAQLSAROALQDILS(Har)-NH2, YaDAIFTAC(Peg-40K)YROVLAQLSAROALQDILS(Har)-NH2, YaDAIFTASYROVLAC(Peg-2K)LSAROALQDILSKN-NH2, YaDAIFTASYROVLAQLSAROALC(Peg-2K)DILSKN-NH2, YaDAIFTASYROVLAQLSAROALQDC(Peg-2K)LSKN-NH2, YaDAIFTASYROVLAQLSAROALQDILC(Peg-2K)KN-NH2, YaDAIFTASYROVLAQLSAROC(Peg-2K)LQDILSKN-NH2, YaDAIFTASYROVLAQLSC(Peg-2K)ROALQDILSKN-NH2, YaDAIFTASYROVLC(Peg-2K)QLSAROALQDILSKN-NH2, YaDAIFTC(Peg-2K)SYROVLAQLSAROALQDILSKN-NH2

The same purity stands for every peptide and may come from a single statement.
